Laboratory results reported in article PMC7819943, “Rice protein-binding microarrays: a tool to detect cis-acting elements near promoter regions in rice”.
The list shows a part of the results.

biological target: T1, OsSMF1 (Oryza sativa, UniProt Q6ZLB0 1-436); experiment: protein-binding microarray (RPBM); PBS, 2% BSA, 51.3 ng/ul salmon testes DNA, 50 uM zinc acetate, 200 nM TF, 25 C, 1 h; high values mean tight binding; details: protein: recombinant; tags: N-terminal polyhistidine and DsRed monomer fusion (pET32a); chain copies: 2; label: CyDye5-dUTP incorporated in the synthesized complementary strand; 3' TTTTT single-stranded linker to array surface; dsDNA, one strand shown
T1 sequence: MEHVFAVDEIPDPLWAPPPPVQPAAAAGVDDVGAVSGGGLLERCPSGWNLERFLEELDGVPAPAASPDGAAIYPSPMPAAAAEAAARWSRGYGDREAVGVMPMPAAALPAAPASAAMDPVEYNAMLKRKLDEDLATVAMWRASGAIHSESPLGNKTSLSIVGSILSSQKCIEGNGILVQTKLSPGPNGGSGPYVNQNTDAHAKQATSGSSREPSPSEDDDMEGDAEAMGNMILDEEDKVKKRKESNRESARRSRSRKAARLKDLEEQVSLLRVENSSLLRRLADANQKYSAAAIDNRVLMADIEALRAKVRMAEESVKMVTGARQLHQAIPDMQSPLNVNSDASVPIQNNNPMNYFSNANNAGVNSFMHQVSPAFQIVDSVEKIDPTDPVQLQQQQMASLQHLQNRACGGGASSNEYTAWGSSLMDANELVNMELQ
In short: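 An Axon 4000B scanner gave the binding signal as per-feature fluorescence intensity in arbitrary units. This followed washing of a custom Agilent array that had been incubated for 1 h at 25 °C with 200 nM protein in PBS, 2% BSA, salmon testes DNA and 50 µM zinc acetate. The proteins were transcription factors fused at the N-terminus to polyhistidine and DsRed, expressed in E. coli BL21-CodonPlus and purified on Ni–NTA.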

Sequence	binding signal
CCTCTCGTCTCGTCTCGCACGCACCCGCCACGTCCACCCCCGGAGTCACCTAGTGCAG	8350 fluorescence intensity (a.u.)
TTACCCACAATTTTAGGTTCTCATCTGCCACCACATATTTCGGAGTCACCTAGTGCAG	21500 fluorescence intensity (a.u.)
CATGAGAGATATAAAACACATGCGTCATTCTCTTTGATCTCGGAGTCACCTAGTGCAG	5120 fluorescence intensity (a.u.)
CGGCTGCGGTAGGAGCTGAGCATGACGAGGAGGGCGAGTGCGGAGTCACCTAGTGCAG	3470 fluorescence intensity (a.u.)
CGTGCTCCTCAACGTTTACACAGAGGTGACAGAGCAGAACCGGAGTCACCTAGTGCAG	4160 fluorescence intensity (a.u.)
GTCGGGCGAAGAAGCCCGACTTCCCACCCACTCTCCCCGTCGGAGTCACCTAGTGCAG	21400 fluorescence intensity (a.u.)
CGAGACGCCGCCGGCGGTGAAGGCCTTGTCGGAGGCAATGCGGAGTCACCTAGTGCAG	22700 fluorescence intensity (a.u.)
CGCGGCGAGGTTGACCCCGCCATCGTCGCCACCGTCCTCGCGGAGTCACCTAGTGCAG	3520 fluorescence intensity (a.u.)
GATCACATGAATGACATAAGCAACATGACGAGCTATGAACCGGAGTCACCTAGTGCAG	4340 fluorescence intensity (a.u.)
CGATGGTAGAAAAGGGTCTACGTAGTACTTAGAATCACGGCGGAGTCACCTAGTGCAG	3160 fluorescence intensity (a.u.)
CGAGTGTACATATTTATACCCATGGGTAGATACTAGTCCTCGGAGTCACCTAGTGCAG	3540 fluorescence intensity (a.u.)
TTATTACTTGGTCATTCGACTCCTTCGTCTTCCTGCGCCCCGGAGTCACCTAGTGCAG	25800 fluorescence intensity (a.u.)
CCAATTGCTCCCTAAGCTAGGAATATATCCTACGAAGTAGCGGAGTCACCTAGTGCAG	5420 fluorescence intensity (a.u.)
GAATACCAAGAACGACGTCATACAAGACTGACGTGCGGTCCGGAGTCACCTAGTGCAG	5690 fluorescence intensity (a.u.)
TTGTATTTTGGAAATATGACGCATTAGATGTTTTATATATCGGAGTCACCTAGTGCAG	3570 fluorescence intensity (a.u.)
ACCAAGAAGTCTACACAATGTCAGTGTCAGTTGTAGTGAGCGGAGTCACCTAGTGCAG	3200 fluorescence intensity (a.u.)
TTAACCAAATGTTGTCATAACATTTATAACCAAAGTGAGTCGGAGTCACCTAGTGCAG	3480 fluorescence intensity (a.u.)
CCTCTTCTCCTTCTCTGTGCCTTGTCGACGAGGCGTGGCCCGGAGTCACCTAGTGCAG	4400 fluorescence intensity (a.u.)
AAGGGAAAATAATGGAGAAAATAATGACGGAGGAGTGGGGCGGAGTCACCTAGTGCAG	3510 fluorescence intensity (a.u.)
GCAGCTGCATATGGCATCGACACCAATTGGTACCTCGACACGGAGTCACCTAGTGCAG	4080 fluorescence intensity (a.u.)
CCCAAGTCCCCGCCACATCCGACTCTTTATATACCTCCCTCGGAGTCACCTAGTGCAG	3350 fluorescence intensity (a.u.)

Shown bar-delimited: entries from further up.
Sequence | binding signal
GTCGGGCGAAGAAGCCCGACTTCCCACCCACTCTCCCCGTCGGAGTCACCTAGTGCAG | 21400 fluorescence intensity (a.u.)
CGAGACGCCGCCGGCGGTGAAGGCCTTGTCGGAGGCAATGCGGAGTCACCTAGTGCAG | 22700 fluorescence intensity (a.u.)

(continued)

Sequence	binding signal
CTTTCGTTTGTGCGCATCAGCACATGCCCGCGTTGCACGTCGGAGTCACCTAGTGCAG	3370 fluorescence intensity (a.u.)
TCTCTTAGGTGCCATACCTCTATGCTAGAGATGAAAAGCTCGGAGTCACCTAGTGCAG	24600 fluorescence intensity (a.u.)
GTATGGCGTCAAGGAGCCGCGCCATGTCCTGGTCGTGACGCGGAGTCACCTAGTGCAG	4160 fluorescence intensity (a.u.)
GTTTCCCCTCGTCTTCATCATCATCGTCAGCAGCAGCAGCCGGAGTCACCTAGTGCAG	8030 fluorescence intensity (a.u.)
CGGCAGGTTTGCCCACTCCTGATTGGTCCACGTGGAGCTGCGGAGTCACCTAGTGCAG	12200 fluorescence intensity (a.u.)
GACACACGTAATCTCAACCATCCGATTGCCATATCCAACTCGGAGTCACCTAGTGCAG	3830 fluorescence intensity (a.u.)
TCGTCGACGTGGCGTTGACGTGGCGGTATTGACCTAATCTCGGAGTCACCTAGTGCAG	37900 fluorescence intensity (a.u.)
GAGCAAAAGTCGCTCTTAAAACTATTAAAGGTGTTATTTTCGGAGTCACCTAGTGCAG	35800 fluorescence intensity (a.u.)
GAGCTTTATATCACAACTCACCAAGGCCCCACGTCGAGTACGGAGTCACCTAGTGCAG	4130 fluorescence intensity (a.u.)
CGGCGTGATTCTCCGTGTCTGCTGCTCTGCTCCACGTATTCGGAGTCACCTAGTGCAG	7040 fluorescence intensity (a.u.)
TATTCCTATTTGGACTCTCCTTTTCTTTTCTAATTTTGGACGGAGTCACCTAGTGCAG	3780 fluorescence intensity (a.u.)
GTGGTGGCTGCGGCTGCGCCATGTGGGTGTGGCATTGTTGCGGAGTCACCTAGTGCAG	3690 fluorescence intensity (a.u.)
GATGTCTTTAAAGAGGATTATATGAAATTTGAGATGAAATCGGAGTCACCTAGTGCAG	3610 fluorescence intensity (a.u.)
TGCCTGCCTCCACCTCACCTGTCTGCCGCGCGCCAAATATCGGAGTCACCTAGTGCAG	5320 fluorescence intensity (a.u.)
TTTCTTCTTTGCGTCGTCATCGTCGTTCTTCGTCAAGCAGCGGAGTCACCTAGTGCAG	9010 fluorescence intensity (a.u.)
CAGACCAGCAGATTGATACCAACAAATTTATTGAGCAATGCGGAGTCACCTAGTGCAG	3410 fluorescence intensity (a.u.)
TGTTTTGCAACTTCACCACGTCGGCAATTACCGCAACAAGCGGAGTCACCTAGTGCAG	6530 fluorescence intensity (a.u.)
TCCATATGGAATTGCTGACTTTGCTGTGTTAGGGATTAATCGGAGTCACCTAGTGCAG	3730 fluorescence intensity (a.u.)
GGAGTGACTTGGACAATCTGTTTACGTCATCTTATTATACCGGAGTCACCTAGTGCAG	10600 fluorescence intensity (a.u.)
AGCGGACTCCTCGTCGCGGCGTCGTCCCGGCCCACGAAAGCGGAGTCACCTAGTGCAG	3200 fluorescence intensity (a.u.)
CGCCTCCTCCTCCGGCGCCACGTAAATGGCCGCTCCAAGCCGGAGTCACCTAGTGCAG	5390 fluorescence intensity (a.u.)
